# Whole data set: some 33,000 sequences, median “E-score (-0.5 to 0.5)” near -0.015, cut for the highest 2% near 0.3. Some of the results follow.
# Biological target: T1, Abf1 (UniProt P14164)
# T1 sequence: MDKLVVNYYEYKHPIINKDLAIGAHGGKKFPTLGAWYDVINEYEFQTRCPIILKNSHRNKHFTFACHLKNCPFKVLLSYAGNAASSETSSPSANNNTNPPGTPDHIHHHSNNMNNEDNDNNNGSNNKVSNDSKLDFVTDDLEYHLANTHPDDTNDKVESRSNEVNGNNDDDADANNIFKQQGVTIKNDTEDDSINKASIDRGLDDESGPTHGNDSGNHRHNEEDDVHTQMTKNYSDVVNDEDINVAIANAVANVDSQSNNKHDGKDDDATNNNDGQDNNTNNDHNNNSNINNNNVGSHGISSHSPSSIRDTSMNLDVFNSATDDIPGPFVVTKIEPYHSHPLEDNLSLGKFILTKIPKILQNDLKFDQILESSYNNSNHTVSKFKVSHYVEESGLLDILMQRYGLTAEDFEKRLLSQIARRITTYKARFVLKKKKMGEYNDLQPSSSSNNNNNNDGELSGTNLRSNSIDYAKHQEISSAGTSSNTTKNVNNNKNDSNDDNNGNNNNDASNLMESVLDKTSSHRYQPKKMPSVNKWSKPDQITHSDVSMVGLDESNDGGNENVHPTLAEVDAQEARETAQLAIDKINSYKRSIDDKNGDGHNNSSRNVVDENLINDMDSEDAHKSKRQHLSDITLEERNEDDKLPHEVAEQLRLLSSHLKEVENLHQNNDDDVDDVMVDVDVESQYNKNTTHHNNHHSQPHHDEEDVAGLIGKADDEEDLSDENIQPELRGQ
# Assay: PBM E-score (8-mer binding enrichment) (E-score (-0.5 to 0.5)); higher = stronger / more preferred TF binding
# Conditions: protein concentration: 200 nM; construct: GST-full length
# Summary of the method: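 Each ungapped eight-base word and its reverse complement, pooled, received an E-score from the Universal PBM Analysis Suite. Underlying scans, normalised with masliner, recorded fluorescent anti-GST bound to GST-tagged yeast transcription factors. These were applied at about 100-200 nM to universal all-10-mer Agilent arrays double-stranded by primer extension.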
row,Sequence,PBM E-score
1,ATTAGCCC,-0.143
2,ATGCCTGA,0.00985
3,CTGAATGC,-0.17
4,AGCGCCAG,-0.0266
5,ATCCATTG,-0.00772
6,GGCATGGA,0.0281
7,AGCACCCT,-0.118
8,GTTATGTA,0.0364
9,ACTCAGGC,-0.21
10,CCTGTCAA,0.0123
11,ATCCCGTG,0.282
12,TCCAGGGA,-0.0731
13,CACACTCC,-0.212
14,ACAGGGCG,-0.124
15,AGGAGCTG,-0.287
16,AAGGGCGA,-0.179
17,GCTCGGGA,-0.26
18,CGGGAGAC,-0.0376
19,AACATATC,0.224
20,GATACGTA,0.124
21,ATGTGTGA,-0.102
22,ATCTTTCC,0.0888

# Taken from the results shown for reference:
row,Sequence,PBM E-score
7,AGCACCCT,-0.118
8,GTTATGTA,0.0364

# Remaining list, next part.

row,Sequence,PBM E-score
1,AGTGAAAG,-0.186
2,CAAGGTCA,0.0883
3,ATTCTCGC,-0.3
4,CCATGCCA,-0.0934
5,AAGTAATC,0.0454
6,GAACAGTC,-0.0496
7,ATCTTGGC,-0.0831
8,AGAAAGAG,-0.267
9,CAAACTAG,-0.0662
10,ATGAACAT,0.189
11,CAGGATAG,0.094
12,AGGTGCCC,-0.127
13,CCCGTTTC,-0.127
14,CTCGGTCC,-0.127
15,CCAGACAC,-0.025
16,TCGAATAA,-0.0457
17,CGCCCAAG,-0.128
18,CATCGCCC,-0.0286
19,CTAAACTA,-0.162
20,CGGTTACA,-0.0435
21,CATTACCC,-0.0113
22,CGTGATAG,0.221

row,Sequence,PBM E-score
1,ATTTTAAG,0.143
2,TGATTAAA,0.194
3,ACCGAGAT,0.0744
4,ACAGGCTA,-0.0965
5,CACTCTCG,0.0866
6,CATTTTCG,0.0799
7,AAGGGCGT,-0.048
8,AGGTAACG,0.092
9,GGATAGAA,0.0838
10,GCTAGACA,-0.0365
11,CCTGCGAG,-0.0804
12,GCCCTGCA,-0.107
13,AGACGTAA,0.0747
14,AACCGAAG,-0.124
15,AAGATACC,0.017
16,CTCCTGAA,-0.107
17,CGGCTGTA,0.022
18,AACTTGGA,-0.0953
19,AGGCCCAC,-0.22
20,AAGCCGAC,-0.0974
21,CGTTCAGC,0.127
22,GAATACGC,-0.0918

row,Sequence,PBM E-score
1,ACCGTCAA,0.143
2,ACTTCCGA,0.0172
3,CCACCTCC,-0.153
4,AGGGCGAC,-0.0984
5,AACCGCGA,0.0319
6,TCACCGCA,0.153
7,CCAGCTGG,0.0897
8,CGTCATAG,0.143
9,GAACATAA,0.0437
10,GGGATGAC,0.0961
11,GCGGAGAC,0.0742
12,AGCGCGTG,0.00517
13,TCGGGTAA,-0.126
14,CGGCCTGC,-0.27
15,GCCTAAAC,-0.0714
16,ATGGCCGA,-0.024
17,GGCGGCAA,-0.0496
18,AGTAGTGC,-0.1
19,GTGTCCTA,-0.0229
20,GCGAAGAA,0.148
21,CGGAAGCC,-0.2
22,GCAACATA,0.0454

# Some values from the list.
# Entry for CGGAAGCC under PBM E-score: -0.2
# Entry for GCAACATA under PBM E-score: 0.0454
# Entry for CGGCCTGC under PBM E-score: -0.27

# Going on with the list:

row,Sequence,PBM E-score
1,AGTGGCGA,0.0606
2,GTGTCTGA,-0.0561
3,TGACACCA,-0.0554
4,ATTCCACG,0.0645
5,CTAAATTC,0.137
6,CGGTTCAC,-0.0967
7,AACGTTAG,0.133
8,GGGTACTA,0.0786
9,CACTCCTA,0.13
10,TCCGCACA,-0.0757
11,ATAAAAAA,0.134
12,CGTGGCGA,0.194
13,ATGAGGTA,0.0798
14,AAGACGTA,0.245
15,AAGCGGAT,-0.18
16,GACTAAGA,0.0632
17,ATCAGTTA,0.156
18,AGGTGGAT,-0.0903
19,ACGATGAT,0.322
20,CTTTTCTA,0.0514
21,CGATCCAG,-0.0671
22,GTTCGGCA,0.0673
